Binding data for one substance are collected here from PMC5438128.

Chains of the proteins cited; added tags and fusions are not shown.
UniProt P32121: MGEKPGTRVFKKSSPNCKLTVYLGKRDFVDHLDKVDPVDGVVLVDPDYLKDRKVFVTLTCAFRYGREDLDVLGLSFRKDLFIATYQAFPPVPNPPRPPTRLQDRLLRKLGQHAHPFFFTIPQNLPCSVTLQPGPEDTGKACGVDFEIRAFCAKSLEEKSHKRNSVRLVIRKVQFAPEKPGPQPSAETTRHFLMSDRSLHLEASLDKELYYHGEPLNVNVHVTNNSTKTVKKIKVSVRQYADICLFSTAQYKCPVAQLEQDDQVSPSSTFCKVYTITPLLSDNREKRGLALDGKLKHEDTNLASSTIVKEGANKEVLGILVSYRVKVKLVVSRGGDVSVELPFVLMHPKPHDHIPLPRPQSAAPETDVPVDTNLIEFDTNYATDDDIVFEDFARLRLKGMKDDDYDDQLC

These are yes or no findings as the source states them, for the method shown. In cells and extracts the contact can be indirect. Some entries that bind do so weakly or less than the wild type. Sequences can lack the tags named with a protein.

In experiment [1] the target is T1, mouse free fatty acid receptor 4 with N-terminal FLAG epitope and C-terminal eYFP (mouse) (UniProt Q7TMA4).
T1 sequence: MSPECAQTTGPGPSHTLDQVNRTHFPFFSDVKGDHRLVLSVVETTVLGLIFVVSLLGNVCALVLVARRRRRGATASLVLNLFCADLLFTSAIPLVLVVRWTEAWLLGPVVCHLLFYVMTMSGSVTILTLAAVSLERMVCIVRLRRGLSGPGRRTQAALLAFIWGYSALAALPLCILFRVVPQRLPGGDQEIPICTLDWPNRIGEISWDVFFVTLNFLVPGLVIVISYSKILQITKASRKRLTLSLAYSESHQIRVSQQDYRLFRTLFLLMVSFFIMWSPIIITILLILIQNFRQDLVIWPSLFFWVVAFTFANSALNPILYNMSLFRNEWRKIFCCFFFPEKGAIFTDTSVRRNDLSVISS
Kind of experiment: condition: only with 10 µM AH-7614 (small-molecule negative allosteric modulator of FFA4); FRET or BRET; BRET in live HEK293T cells coexpressing mFFA4-eYFP and β-arrestin-2-Renilla luciferase; pretreated for 30 minutes with 10 µM AH-7614, then TUG-891, Cpd A, GSK137647A or TUG-1197.

For experiment [2], the target named is T1, mouse free fatty acid receptor 4 with N-terminal FLAG epitope and C-terminal eYFP (mouse). Kind of experiment: FRET or BRET; BRET in live HEK293T cells cotransfected with eYFP-tagged receptor and β-arrestin-2 Renilla luciferase plasmid (4:1); HBSS, 37°C; 2.5 µM coelenterazine h for 10 min, then FFA4 agonist (aLA, TUG-891, TUG-1197, GSK137647A or Cpd A) for 5 min; preincubation with vehicle, AH-7614, TUG-1506 or TUG-1387; ratio of 535/475 nm. (In general: BRET reads energy transfer from a luciferase to a nearby fluorophore.)

For the substance “β-arrestin-2 Renilla luciferase (from UniProt P32121 1-409)”, the binding entry in experiment [1] was “no binding”; in experiment [2], “binds”.
